Results from article PMC3978507, “Fusion of a Short HA2-Derived Peptide Sequence to Cell-Penetrating Peptides Improves Cytosolic Uptake, but Enhances Cytotoxic Activity” (Pharmaceuticals, 2009).
Positions of bridges follow the written chain, without caps; N, C: chain ends. Residues, ends and D or L forms follow the SMILES beside them. Chains are numbered I, II in the order given.

Test: CD spectroscopy
Type: physicochemical
Conditions: 20 µM peptide; for R-value (ratio of molar ellipticity at 222 nm and 207 nm), 50% TFE: 10 mM phosphate buffer pH 7 with 50% TFE, 20 °C

| Compound | R-value (ratio of molar ellipticity at 222 nm and 207 nm), phosphate buffer (10 mM phosphate buffer pH 7, 20 °C) | R-value (ratio of molar ellipticity at 222 nm and 207 nm), 50% TFE |
| --- | --- | --- |
| CC[C@H](C)[C@H](NC(=O)[C@H](C)NC(=O)[C@@H](NC(=O)[C@H](CCC(N)=O)NC(=O)[C@@H]1CCCN1C(=O)[C@H](Cc1ccccc1)NC(=O)[C@@H](NC(=O)[C@H](Cc1c[nH]cn1)NC(=O)[C@H](Cc1ccccc1)NC(=O)[C@H](CCCCNC(=O)[C@H](C)NC(=O)[C@H](Cc1ccccc1)NC(=O)[C@H](CCCCN)NC(=O)[C@H](CCCNC(=N)N)NC(=O)[C@H](CCCCN)NC(=O)[C@H](CCCCN)NC(=O)[C@H](CCCCN)NC(=O)[C@@H]1CCCN1C(=O)[C@H](C)NC(=O)[C@H](CCCCN)NC(=O)[C@H](CCCNC(=N)N)NC(=O)[C@H](CCCCN)NC(=O)[C@@H](N)CCCCN)NC(=O)[C@H](CCC(=O)O)NC(=O)[C@H](CC(C)C)NC(=O)[C@H](CC(C)C)NC(=O)[C@H](CCC(=O)O)NC(=O)[C@H](C)NC(=O)[C@H](CC(C)C)NC(=O)[C@H](C)NC(=O)[C@H](CCC(=O)O)NC(=O)[C@H](CC(C)C)NC(=O)[C@H](CC(C)C)NC(=O)CN)[C@@H](C)O)[C@@H](C)O)C(=O)NCC(=O)N[C@H](C(=O)NCC(=O)N[C@@H](C)C(=O)N1CCC[C@H]1C(N)=O)C(C)C [N-E5L-hCT(18-32)-k7] (I: H-GLLEALAELLEKFHTFPQTAIGVGAP-NH2 / II: H-KKRKAPKKKRKFA; amide I:12-II:C; N-terminus assumed) | 0.40 | 0.64 |
| GLLEALAELLE [N-E5L, truncated, modified E5L-peptide; analogue of the HA fusion-peptide from the N-terminal region of the HA2 subunit] | – | 0.68 |
